# Results taken from PMC7819943, “Rice protein-binding microarrays: a tool to detect cis-acting elements near promoter regions in rice”.
# Some of the results follow.
# Target: T1, OsSMF1 (Oryza sativa, UniProt Q6ZLB0 1-436)
# T1 sequence: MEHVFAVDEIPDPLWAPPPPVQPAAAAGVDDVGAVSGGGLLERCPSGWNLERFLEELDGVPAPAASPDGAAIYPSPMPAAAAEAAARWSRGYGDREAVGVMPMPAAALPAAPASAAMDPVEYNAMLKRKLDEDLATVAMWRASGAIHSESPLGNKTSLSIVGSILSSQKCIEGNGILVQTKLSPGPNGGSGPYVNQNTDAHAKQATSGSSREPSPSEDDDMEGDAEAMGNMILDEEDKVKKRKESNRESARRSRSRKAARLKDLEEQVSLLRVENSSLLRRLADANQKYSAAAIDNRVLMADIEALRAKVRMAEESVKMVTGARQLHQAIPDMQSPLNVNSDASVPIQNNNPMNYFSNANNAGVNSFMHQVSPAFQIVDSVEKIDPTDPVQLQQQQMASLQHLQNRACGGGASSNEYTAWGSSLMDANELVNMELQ
# Assay: protein-binding microarray (RPBM); PBS, 2% BSA, 51.3 ng/ul salmon testes DNA, 50 uM zinc acetate, 200 nM TF, 25 C, 1 h; high values mean tight binding
# Conditions: protein: recombinant; tags: N-terminal polyhistidine and DsRed monomer fusion (pET32a); chain copies: 2; label: CyDye5-dUTP incorporated in the synthesized complementary strand; 3' TTTTT single-stranded linker to array surface; dsDNA, one strand shown
# How it was run: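 Transcription factors were each fused at the N-terminus to a polyhistidine tag plus DsRed and expressed in E. coli BL21-CodonPlus before Ni–NTA purification. Binding to a double-stranded custom Agilent array was carried out with 200 nM protein at 25 °C for 1 h in PBS, 2% BSA, salmon testes DNA and 50 µM zinc acetate. The binding signal is per-feature fluorescence intensity, in arbitrary units, on an Axon 4000B scanner.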
row,Sequence,binding signal
1,AACAATGCACACAGACATTGACATATCCATGGTCCAGGGACGGAGTCACCTAGTGCAG,3430 fluorescence intensity (a.u.)
2,GAGGAGCGAGGGTTTGCTGTTGATTTGGTCACAGTAACATCGGAGTCACCTAGTGCAG,21900 fluorescence intensity (a.u.)
3,GCGACGTAAGCAGCCACGTTAGATAAAATCACCAAACCGCCGGAGTCACCTAGTGCAG,4450 fluorescence intensity (a.u.)
4,GCGATGTTGTCGGCGTGGAAGCCACTGACGGCTTTCTCGGCGGAGTCACCTAGTGCAG,3830 fluorescence intensity (a.u.)
5,GTGTTTTGACGCATGCATGCCGTTGGTCATCAGTTAATCACGGAGTCACCTAGTGCAG,3480 fluorescence intensity (a.u.)
6,CGGACTCGGAGACTTCGTCATGGAGCCCCTGCTGTTCTTGCGGAGTCACCTAGTGCAG,4030 fluorescence intensity (a.u.)
7,CCGACCGTGCCGGCAAGAATGCGGCGGTGCACGCCTCCAACGGAGTCACCTAGTGCAG,3260 fluorescence intensity (a.u.)
8,TCTGTGTGATCCTAGCCGCTCCGCCGCCACTCACGGTTGTCGGAGTCACCTAGTGCAG,3860 fluorescence intensity (a.u.)
9,GTAATTGACAACTGACAACCGACAGTTATTGACTCATTCCCGGAGTCACCTAGTGCAG,3340 fluorescence intensity (a.u.)
10,TCCATCTCCGATCGGACGGTCGATCATCCATGTTACACTGCGGAGTCACCTAGTGCAG,3380 fluorescence intensity (a.u.)
11,CGCGAAGGTTGACGCTGTTCCACGACCACCCGGTCCTGGGCGGAGTCACCTAGTGCAG,3240 fluorescence intensity (a.u.)
12,GGAGGACTATCCTGAAAATGACATATACAGTACATCATGTCGGAGTCACCTAGTGCAG,3240 fluorescence intensity (a.u.)
13,AGGTGGCATATTGACATCGTTAGCATTTTCCTGCAAATACCGGAGTCACCTAGTGCAG,3410 fluorescence intensity (a.u.)
14,CCTCTTTCTCTCGTACGATCGTGCCGCCTGACGCCTGCTGCGGAGTCACCTAGTGCAG,3800 fluorescence intensity (a.u.)
15,CTGCTTTCTGGTTCATCTATGATAATATGACTGTGCTGCTCGGAGTCACCTAGTGCAG,4680 fluorescence intensity (a.u.)
16,TTGGAGAGGCACATGCTGATGAGGCGGAGGAGGGGCGGCGCGGAGTCACCTAGTGCAG,5340 fluorescence intensity (a.u.)
17,ATCAGAAGTACGGCCACGTCAGAACAAGCAGAGAAAGGCCCGGAGTCACCTAGTGCAG,10000 fluorescence intensity (a.u.)
18,CAACCTCCGCCGCCGCCGCCGCCGTCCAGGAACTGACCGGCGGAGTCACCTAGTGCAG,3960 fluorescence intensity (a.u.)
19,AAATGCATCAGTAAACCAGCATATTACACGGATCAAATCACGGAGTCACCTAGTGCAG,4350 fluorescence intensity (a.u.)
20,GCCCGACCACATCCCTCTCCCTCCTTACGCCGGCACGAATCGGAGTCACCTAGTGCAG,3430 fluorescence intensity (a.u.)
21,TCTTGATTATCGGTGTGGCAGTGGCAGTTCAGTGGCACTGCGGAGTCACCTAGTGCAG,3460 fluorescence intensity (a.u.)

row,Sequence,binding signal
1,CCGTGGTCTTGTCTATGTGGCATGCTACGTGGACGATGACCGGAGTCACCTAGTGCAG,7300 fluorescence intensity (a.u.)
2,GCCGGTGGTCCCACCGTCCACGTCCCACGCCGGAGCTCGTCGGAGTCACCTAGTGCAG,7920 fluorescence intensity (a.u.)
3,CTACCTTGGCCACAACGCCCACGTACACCTTCCATTGTTGCGGAGTCACCTAGTGCAG,6250 fluorescence intensity (a.u.)
4,CCTTCGGCCTATGATTCTATGGAAGCCCGTCATGACCAAGCGGAGTCACCTAGTGCAG,3140 fluorescence intensity (a.u.)
5,TTGGTTGACACGTGGAGGCGGACATATGGACCCACGTGGACGGAGTCACCTAGTGCAG,24300 fluorescence intensity (a.u.)
6,GGCTCCAGCCCAACAAGTTCTCGGCCCAACTATCCACGTACGGAGTCACCTAGTGCAG,3430 fluorescence intensity (a.u.)
7,GCGGGTGGGTGGCAGGGTGGGTATACGTACACGTCTCCGACGGAGTCACCTAGTGCAG,4750 fluorescence intensity (a.u.)
8,CCTTCCAGATTGTCCACGCTACCAGTGTCGCCTCCTACTGCGGAGTCACCTAGTGCAG,3750 fluorescence intensity (a.u.)
9,CCACTGTAGTGGTAAATTGTTGTTTTCTCTGAATTGGTGTCGGAGTCACCTAGTGCAG,6720 fluorescence intensity (a.u.)
10,GGCCCAGCAGGTAGCATACACGAGCTGCGAGATGAGTCGGCGGAGTCACCTAGTGCAG,3480 fluorescence intensity (a.u.)
11,ACCAGGGAGCATGAGATCGTGGCGAGTAAATTTGACGGGGCGGAGTCACCTAGTGCAG,4310 fluorescence intensity (a.u.)
12,AAACTATTAAGCCAAGGAATAAGGATGGAAGCGTCATGCTCGGAGTCACCTAGTGCAG,3520 fluorescence intensity (a.u.)
13,ACTAGTACCATCATCGCACCCCACACCAACTGACACGTGGCGGAGTCACCTAGTGCAG,24800 fluorescence intensity (a.u.)
14,TCAATGATATTCCAACTCACTGTCACTGTCATATGATCTGCGGAGTCACCTAGTGCAG,5910 fluorescence intensity (a.u.)
15,GAAGAGGAAGCCGGACACTGAATCGCGGGAGAGGTGTGTGCGGAGTCACCTAGTGCAG,3140 fluorescence intensity (a.u.)
16,TGCTGCCGGCGGTGGCGGGGCGGCCGAGGTGGCGGCTGCTCGGAGTCACCTAGTGCAG,3660 fluorescence intensity (a.u.)
17,GAAGAGAAGTCGTCAGGTGATATTTCGTGGGCCAAATGGGCGGAGTCACCTAGTGCAG,34000 fluorescence intensity (a.u.)
18,AAATAAACAAGACAAGCATTTCCCTTACGGTTAAGAGTATCGGAGTCACCTAGTGCAG,4290 fluorescence intensity (a.u.)
19,CCTTCCTCTTGTAACAGAAGGGTACTTACGTGGCAGCCCACGGAGTCACCTAGTGCAG,17100 fluorescence intensity (a.u.)
20,TTTGATCCAAGGGTCGTCGTCGTCGTCGTTAGTCTAATGACGGAGTCACCTAGTGCAG,3360 fluorescence intensity (a.u.)
21,TCCCATGCCGCCTCACCGGTGACCACCTACCCGCCCTTCCCGGAGTCACCTAGTGCAG,3930 fluorescence intensity (a.u.)

# As entered above:
# Value of GGCCCAGCAGGTAGCATACACGAGCTGCGAGATGAGTCGGCGGAGTCACCTAGTGCAG under binding signal: 3480 fluorescence intensity (a.u.)
# Value of TCTTGATTATCGGTGTGGCAGTGGCAGTTCAGTGGCACTGCGGAGTCACCTAGTGCAG under binding signal: 3460 fluorescence intensity (a.u.)
